In ChEMBL document CHEMBL1153423, “Identification and characterization of small molecule inhibitors of a class I histone deacetylase from Plasmodium falciparum” (J Med Chem, 2009):

Tested on: Plasmodium falciparum
Experiment: Antimalarial activity against Plasmodium falciparum 3D7 by [3H]hypoxanthine uptake
Format: functional, organism-based

- IC50: 0.21 µM
SMILES: O=C(CCCCCCC(=O)Nc1ccccc1)NO [VORINOSTAT]
